Measured values: paper PMC8651678
These are yes or no findings as the source states them, for the method shown. Some entries that bind do so weakly or less than the wild type.

Sequences of proteins named here, by UniProt entry; tags and fusion partners are left off. A change or cut given only in a name is not applied to a line headed by its entry.
UniProt P49770: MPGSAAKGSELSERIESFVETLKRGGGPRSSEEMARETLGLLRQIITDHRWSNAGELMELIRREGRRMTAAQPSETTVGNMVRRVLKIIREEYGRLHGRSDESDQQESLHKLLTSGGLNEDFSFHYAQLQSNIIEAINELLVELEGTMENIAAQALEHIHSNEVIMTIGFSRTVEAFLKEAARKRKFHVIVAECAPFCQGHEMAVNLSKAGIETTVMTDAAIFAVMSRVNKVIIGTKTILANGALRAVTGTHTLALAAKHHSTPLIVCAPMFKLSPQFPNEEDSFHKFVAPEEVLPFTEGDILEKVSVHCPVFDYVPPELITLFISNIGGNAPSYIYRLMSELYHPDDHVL
UniProt Q14232: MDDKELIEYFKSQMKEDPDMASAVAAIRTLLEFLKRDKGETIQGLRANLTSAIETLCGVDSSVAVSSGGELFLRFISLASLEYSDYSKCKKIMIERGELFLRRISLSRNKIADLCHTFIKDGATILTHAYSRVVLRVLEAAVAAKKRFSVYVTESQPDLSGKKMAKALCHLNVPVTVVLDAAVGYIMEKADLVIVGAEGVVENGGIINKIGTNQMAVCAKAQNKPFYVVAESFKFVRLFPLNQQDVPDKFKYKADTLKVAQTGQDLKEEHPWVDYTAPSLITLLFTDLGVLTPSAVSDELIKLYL
UniProt P12792: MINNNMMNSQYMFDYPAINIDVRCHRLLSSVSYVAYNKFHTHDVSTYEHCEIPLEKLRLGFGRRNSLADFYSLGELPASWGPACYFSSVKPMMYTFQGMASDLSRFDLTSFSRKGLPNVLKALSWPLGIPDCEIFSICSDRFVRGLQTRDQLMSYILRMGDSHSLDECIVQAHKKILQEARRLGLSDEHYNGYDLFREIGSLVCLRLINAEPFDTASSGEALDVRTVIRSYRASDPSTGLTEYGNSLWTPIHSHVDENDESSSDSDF

Tests used:
[1] = biological target: human eIF2Bβδγε tetramer, eIF2Bβ protein C tagged (human) (UniProt P49770); assay: pull-down; both purified
[2] = biological target: human eIF2B(αβδγε)2 decamer, eIF2Bα protein C tagged (human) (UniProt Q14232); assay: pull-down; both purified
[3] = biological target: human eIF2Bβδγε tetramer, eIF2Bβ Avi-tagged and biotinylated (human) (UniProt P49770); assay: SPR; both purified
[4] = biological target: human eIF2B(αβδγε)2 decamer, eIF2Bα Avi-tagged and biotinylated (human) (UniProt Q14232); assay: SPR; both purified

For “Sandfly Fever Sicilian virus (SFSV) NSs protein with a C-terminal 6xHIS tag (from UniProt P12792 1-267)”, the binding [1] was “no binding”, the binding [2] was “binds” and the binding [3] was “no binding”. For the same substance, the binding [4] was “binds”.
